This passage reports binding results from article doi:10.1101/2020.01.03.892703.

Protein sequences, listed by entry. Tags and fused reporters are not part of them.
UniProt Q64511: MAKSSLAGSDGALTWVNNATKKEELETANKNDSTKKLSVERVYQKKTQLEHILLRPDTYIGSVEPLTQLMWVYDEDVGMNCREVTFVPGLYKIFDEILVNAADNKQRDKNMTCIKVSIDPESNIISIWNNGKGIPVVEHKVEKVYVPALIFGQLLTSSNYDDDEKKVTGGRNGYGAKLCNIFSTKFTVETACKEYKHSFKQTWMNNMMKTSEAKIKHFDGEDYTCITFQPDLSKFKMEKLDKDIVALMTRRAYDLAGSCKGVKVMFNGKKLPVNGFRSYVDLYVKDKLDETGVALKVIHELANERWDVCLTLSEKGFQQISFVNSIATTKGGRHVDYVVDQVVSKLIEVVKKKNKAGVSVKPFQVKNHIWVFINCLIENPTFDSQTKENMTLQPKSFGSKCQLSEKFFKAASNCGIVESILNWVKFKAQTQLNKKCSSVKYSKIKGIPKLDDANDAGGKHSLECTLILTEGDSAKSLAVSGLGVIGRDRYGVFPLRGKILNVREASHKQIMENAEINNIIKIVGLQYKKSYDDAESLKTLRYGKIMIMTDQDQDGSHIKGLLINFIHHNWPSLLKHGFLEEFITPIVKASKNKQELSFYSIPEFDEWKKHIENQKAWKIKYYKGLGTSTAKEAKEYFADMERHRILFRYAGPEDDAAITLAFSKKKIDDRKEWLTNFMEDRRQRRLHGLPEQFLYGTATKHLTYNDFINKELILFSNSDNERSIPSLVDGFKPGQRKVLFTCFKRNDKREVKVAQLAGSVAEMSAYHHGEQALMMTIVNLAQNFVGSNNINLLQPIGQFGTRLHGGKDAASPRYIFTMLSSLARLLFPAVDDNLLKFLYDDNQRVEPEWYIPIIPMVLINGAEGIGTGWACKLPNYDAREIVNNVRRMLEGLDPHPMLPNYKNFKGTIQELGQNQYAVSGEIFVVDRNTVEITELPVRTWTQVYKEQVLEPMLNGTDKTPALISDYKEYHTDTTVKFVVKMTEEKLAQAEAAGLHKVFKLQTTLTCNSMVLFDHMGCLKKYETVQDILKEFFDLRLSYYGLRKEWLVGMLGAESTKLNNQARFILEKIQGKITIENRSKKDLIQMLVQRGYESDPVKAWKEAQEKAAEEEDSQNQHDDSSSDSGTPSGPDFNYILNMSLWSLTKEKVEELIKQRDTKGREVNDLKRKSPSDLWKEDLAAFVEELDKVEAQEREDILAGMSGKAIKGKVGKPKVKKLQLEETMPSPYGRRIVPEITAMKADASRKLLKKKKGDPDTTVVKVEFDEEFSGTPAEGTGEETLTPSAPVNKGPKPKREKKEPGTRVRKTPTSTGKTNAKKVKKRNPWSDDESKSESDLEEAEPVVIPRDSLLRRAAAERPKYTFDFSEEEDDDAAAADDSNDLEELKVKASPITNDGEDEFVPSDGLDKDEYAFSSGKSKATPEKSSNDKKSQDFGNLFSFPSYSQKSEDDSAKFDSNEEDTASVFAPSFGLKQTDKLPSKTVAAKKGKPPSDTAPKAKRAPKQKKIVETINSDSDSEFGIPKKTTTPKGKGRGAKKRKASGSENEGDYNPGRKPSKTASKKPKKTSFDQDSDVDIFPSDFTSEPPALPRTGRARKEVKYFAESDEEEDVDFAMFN

These are yes or no findings as the source states them, for the method shown. In cells and extracts the contact can be indirect. Some results given as binding are weak or reduced against the parent protein; the word gives no strength. For part of these data: Where a sequence is shown, tags or fusion partners need not be part of it.

For assay [1], the target named is T1, biotin-tagged XPF (mouse (endogenous knock-in in MEFs)) (UniProt Q9QZD4).
T1 sequence (chain, biotin on the 15 aa tag (by the BirA ligase in vivo)): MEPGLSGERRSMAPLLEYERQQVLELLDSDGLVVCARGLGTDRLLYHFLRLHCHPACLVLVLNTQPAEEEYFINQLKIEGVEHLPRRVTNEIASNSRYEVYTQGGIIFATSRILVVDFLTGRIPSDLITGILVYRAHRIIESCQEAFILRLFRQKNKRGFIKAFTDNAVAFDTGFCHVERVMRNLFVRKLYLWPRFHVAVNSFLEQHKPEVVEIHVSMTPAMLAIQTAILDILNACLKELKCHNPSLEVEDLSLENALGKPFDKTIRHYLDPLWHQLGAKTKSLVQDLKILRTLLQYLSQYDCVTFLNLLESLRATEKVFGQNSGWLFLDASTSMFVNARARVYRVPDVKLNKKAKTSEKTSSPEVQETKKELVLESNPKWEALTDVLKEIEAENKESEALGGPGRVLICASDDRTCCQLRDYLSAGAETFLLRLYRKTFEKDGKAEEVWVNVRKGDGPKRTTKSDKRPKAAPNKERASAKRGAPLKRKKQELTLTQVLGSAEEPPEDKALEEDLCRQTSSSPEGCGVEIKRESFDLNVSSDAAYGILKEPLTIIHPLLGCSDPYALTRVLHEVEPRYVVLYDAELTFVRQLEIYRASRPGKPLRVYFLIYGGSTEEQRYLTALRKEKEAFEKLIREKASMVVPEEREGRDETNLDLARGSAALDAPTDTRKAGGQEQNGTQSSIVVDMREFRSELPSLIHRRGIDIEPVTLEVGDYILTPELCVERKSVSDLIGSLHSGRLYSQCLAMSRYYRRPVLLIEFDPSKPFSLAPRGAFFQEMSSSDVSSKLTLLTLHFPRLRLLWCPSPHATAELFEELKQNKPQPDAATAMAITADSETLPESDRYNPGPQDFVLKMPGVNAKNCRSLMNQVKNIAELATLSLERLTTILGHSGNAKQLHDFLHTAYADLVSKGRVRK
The assay can be described thus: pull-down.

Assay [2] addresses Topoisomerase IIβ (mouse (endogenous in MEFs)) (UniProt Q64511). In words: co-IP.
Assay [3] has as its target T2, ERCC1 (mouse (endogenous in MEFs)) (UniProt P07903).
T2 sequence: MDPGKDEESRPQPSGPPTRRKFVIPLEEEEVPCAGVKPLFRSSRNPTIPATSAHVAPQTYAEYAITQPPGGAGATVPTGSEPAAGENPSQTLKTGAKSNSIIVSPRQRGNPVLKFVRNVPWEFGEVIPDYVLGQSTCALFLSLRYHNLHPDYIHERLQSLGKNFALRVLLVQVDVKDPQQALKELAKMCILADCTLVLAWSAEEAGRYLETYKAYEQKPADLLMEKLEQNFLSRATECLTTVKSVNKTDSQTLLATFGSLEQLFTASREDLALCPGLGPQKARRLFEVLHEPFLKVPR
The assay can be described thus: co-IP.

B1: TBP (protein, UniProt P29037 1-316)
chain: MDQNNSLPPYAQGLASPQGAMTPGIPIFSPMMPYGTGLTPQPIQNTNSLSILEEQQRQQQQQQQQQQQQQAVATAAASVQQSTSQQPTQGASGQTPQLFHSQTLTTAPLPGTTPLYPSPMTPMTPITPATPASESSGIVPQLQNIVSTVNLGCKLDLKTIALRARNAEYNPKRFAAVIMRIREPRTTALIFSSGKMVCTGAKSEEQSRLAARKYARVVQKLGFPAKFLDFKIQNMVGSCDVKFPIRLEGLVLTHQQFSSYEPELFPGLIYRMIKPRIVLLIFVSGKVVLTGAKVRAEIYEAFENIYPILKGFRKTT
As for B1, the binding result in assay [1] is recorded as “binds”.

B2: SMC1A (protein, UniProt Q9CU62 1-1233)
chain: MGFLKLIEIENFKSYKGRQIIGPFQRFTAIIGPNGSGKSNLMDAISFVLGEKTSNLRVKTLRDLIHGAPVGKPAANRAFVSMVYSEEGAEDRTFARVIVGGSSEYKINNKVVQLHEYSEELEKLGILIKARNFLVFQGAVESIAMKNPKERTALFEEISRSGELAQEYDKRKKEMVKAEEDTQFNYHRKKNIAAERKEAKQEKEEADRYQRLKDEVVRAQVQLQLFKLYHNEVEIEKLNKELASKNKEIEKDKKRMDKVEDELKEKKKELGKMMREQQQIEKEIKEKDSELNQKRPQYIKAKENTSHKIKKLEAAKKSLQNAQKHYKKRKGDMDELEKEMLSVEKARQEFEERMEEESQSQGRDLTLEENQVKKYHRLKEEASKRAATLAQELEKFNRDQKADQDRLDLEERKKVETEAKIKQKLREIEENQKRIEKLEEYITTSKQSLEEQKKLEGELTEEVEMAKRRIDEINKELNQVMEQLGDARIDRQESSRQQRKAEIMESIKRLYPGSVYGRLIDLCQPTQKKYQIAVTKVLGKNMDAIIVDSEKTGRDCIQYIKEQRGEPETFLPLDYLEVKPTDEKLRELKGAKLVIDVIRYEPPHIKKALQYACGNALVCDNVEDARRIAFGGHQRHKTVALDGTLFQKSGVISGGASDLKAKARRWDEKAVDKLKEKKERLTEELKEQMKAKRKEAELRQVQSQAHGLQMRLKYSQSDLEQTKTRHLALNLQEKSKLESELANFGPRINDIKRIIQSREREMKDLKEKMNQVEDEVFEEFCREIGVRNIREFEEEKVKRQNEIAKKRLEFENQKTRLGIQLDFEKNQLKEDQDKVHMWEQTVKKDENEIEKLKKEEQRHMKIIDETMAQLQDLKNQHLAKKSEVNDKNHEMEEIRKKLGGANKEMTHLQKEVTAIETKLEQKRSDRHNLLQACKMQDIKLPLSKGTMDDISQEEGSSQGEESVSGSQRTSSIYAREALIEIDYGDLCEDLKDAQAEEEIKQEMNTLQQKLNEQQSVLQRIAAPNMKAMEKLESVRDKFQETSDEFEAARKRAKKAKQAFEQIKKERFDRFNACFESVATNIDEIYKALSRNSSAQAFLGPENPEEPYLDGINYNCVAPGKRFRPMDNLSGGEKTVAALALLFAIHSYKPAPFFVLDEIDAALDNTNIGKVANYIKEQSTCNFQAIVISLKEEFYTKAESLIGVYPEQGDCVISKVLTFDLTKYPDANPNPNEQ
As for B2, the binding result in assay [1], in assay [2] and in assay [3] was “binds” each time.

B3: CCCTC-binding factor (protein, UniProt Q61164 1-736)
chain: MEGEAVEAIVEESETFIKGKERKTYQRRREGGQEEDACHLPQNQTDGGEVVQDVNSSVQMVMMEQLDPTLLQMKTEVMEGTVAPEAEAAVDDTQIITLQVVNMEEQPINIGELQLVQVPVPVTVPVATTSVEELQGAYENEVSKEGLAESEPMICHTLPLPEGFQVVKVGANGEVETLEQGELPPQEDSSWQKDPDYQPPAKKTKKTKKSKLRYTEEGKDVDVSVYDFEEEQQEGLLSEVNAEKVVGNMKPPKPTKIKKKGVKKTFQCELCSYTCPRRSNLDRHMKSHTDERPHKCHLCGRAFRTVTLLRNHLNTHTGTRPHKCPDCDMAFVTSGELVRHRRYKHTHEKPFKCSMCDYASVEVSKLKRHIRSHTGERPFQCSLCSYASRDTYKLKRHMRTHSGEKPYECYICHARFTQSGTMKMHILQKHTENVAKFHCPHCDTVIARKSDLGVHLRKQHSYIEQGKKCRYCDAVFHERYALIQHQKSHKNEKRFKCDQCDYACRQERHMIMHKRTHTGEKPYACSHCDKTFRQKQLLDMHFKRYHDPNFVPAAFVCSKCGKTFTRRNTMARHADNCAGPDGVEGENGGETKKSKRGRKRKMRSKKEDSSDSEENAEPDLDDNEEEEEPAVEIEPEPEPQPQPPPPPQPVAPAPPPAKKRRGRPPGRTNQPKQNQPTAIIQVEDQNTGAIENIIVEVKKEPDAEPAEGEEEEAQAATTDAPNGDLTPEMILSMMDR
On to B3, for which the binding entry in assay [1], in assay [2] and in assay [3] was “binds” throughout.

B4: ERCC1 (protein, UniProt P07903 1-298)
chain: T2 sequence
For the molecule B4, the binding result in assay [1] and in assay [2] was “binds” each time.
